Our source for the binding values is article PMC9323240.

No constants are given. Whether binding was seen depends on the method and setting. A result given as binding can be weak or reduced; the word gives no strength. For part of these data: Where a sequence is shown, tags or fusion partners need not be part of it. For part of these data: In cells and extracts the contact can be indirect.

Assay [1] concerns the target T1, HB27-HA (HB27-HA-pET28a protein) (Arabidopsis thaliana) (UniProt Q9FMY7).
T1 sequence: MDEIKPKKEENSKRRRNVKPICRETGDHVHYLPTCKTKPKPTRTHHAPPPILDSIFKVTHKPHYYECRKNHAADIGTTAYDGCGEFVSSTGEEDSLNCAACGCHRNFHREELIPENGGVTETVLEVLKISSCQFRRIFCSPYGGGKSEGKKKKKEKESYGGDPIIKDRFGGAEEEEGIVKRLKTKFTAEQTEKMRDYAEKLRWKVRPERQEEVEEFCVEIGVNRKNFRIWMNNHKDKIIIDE
The assay is described as follows: far-Western, overlay or dot blot; HB27-HA and BSA run on SDS-PAGE, blotted on PVDF, denatured and renatured in AC buffer; membrane incubated with 5 µg purified 2b-MYC in AC buffer without urea overnight at 4 °C; detected with anti-MYC antibody; both purified.

Assay [2] has as its target Cucumber mosaic virus 2b protein in pGBKT7 (yeast two-hybrid bait) (Cucumber mosaic virus subgroup II). Kind of assay: two-hybrid; one-to-one, GAL4-based: HB27-pGADT7 with 2b-pGBKT7; dilution assay on SD/-LTHA at 30 °C, 5-7 days, and X-gal assay.
Assay [3] has as its target CMV 2b protein fused to the C-terminal half of YFP (Cucumber mosaic virus subgroup II). The assay is described as follows: split reporter; BiFC in N. benthamiana leaf epidermal cells, agroinfiltrated together with P19; YFP read by confocal microscopy 48 h after infiltration.

In the case of “CMV 2b-MYC (CMV2b-MYC-pET28a protein) (Cucumber mosaic virus subgroup II)”, the binding result in assay [1] was “binds”.

B1: HB27 in pGADT7 (yeast two-hybrid prey) (protein, UniProt Q9FMY7 1-242)
chain: T1 sequence
In the case of B1, the binding result in assay [2] is “binds”.

B2: HB27 fused to the N-terminal half of YFP (protein, UniProt Q9FMY7 1-242)
chain: T1 sequence
As to B2, in assay [3], the binding result is on record as “binds”.
